Measured values taken from the supplement of paper PMC8612539.
Converted amounts (≈) assume the structure as drawn. This continues a long series; more values of the same kind are listed elsewhere.

System: Escherichia coli
Experiment: minimum inhibitory concentration (MIC)
Method: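 Broth microdilution MIC (Sensititre BOPO7F bovine plate, CLSI methods) of 19 antimicrobials against field isolates of P. multocida, M. haemolytica, H. somni (deep nasopharyngeal swabs) and E. coli, Enterococcus spp. (rectal swabs) from weaned dairy heifers. Incubation 16-24 h at 35 C. MIC is the lowest concentration preventing visible growth. Values with <= or > lie at the tested range limits. Trimethoprim-sulfamethoxazole is given as the trimethoprim component of a 1:19 mixture.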

CN(C)[C@@H]1C(O)=C(C(N)=O)C(=O)[C@@]2(O)C(O)=C3C(=O)c4c(O)cccc4[C@@](C)(O)[C@H]3C[C@@H]12 [Tetracycline]
Conditions | minimum inhibitory concentration [µg/mL]
isolate (source animal id): 221 | 1 (≈ 2.25 µM)
isolate (source animal id): 222 | 1 (≈ 2.25 µM)
isolate (source animal id): 223 | > 8
isolate (source animal id): 224 | > 8
isolate (source animal id): 225 | > 8
isolate (source animal id): 226 | > 8
isolate (source animal id): 227 | > 8
isolate (source animal id): 228 | > 8
isolate (source animal id): 229 | > 8
isolate (source animal id): 230 | 1 (≈ 2.25 µM)
isolate (source animal id): 231 | > 8
isolate (source animal id): 232 | 2 (≈ 4.5 µM)
isolate (source animal id): 233 | > 8
isolate (source animal id): 234 | 2 (≈ 4.5 µM)
isolate (source animal id): 235 | > 8
isolate (source animal id): 236 | > 8
isolate (source animal id): 237 | > 8
isolate (source animal id): 238 | > 8
isolate (source animal id): 239 | 2 (≈ 4.5 µM)
isolate (source animal id): 240 | > 8
isolate (source animal id): 241 | > 8
isolate (source animal id): 242 | 1 (≈ 2.25 µM)
isolate (source animal id): 243 | > 8
isolate (source animal id): 244 | 2 (≈ 4.5 µM)
isolate (source animal id): 245 | > 8
isolate (source animal id): 246 | > 8
isolate (source animal id): 247 | > 8
isolate (source animal id): 248 | > 8
isolate (source animal id): 249 | 2 (≈ 4.5 µM)
isolate (source animal id): 250 | > 8
isolate (source animal id): 251 | > 8
isolate (source animal id): 252 | > 8
isolate (source animal id): 253 | > 8
isolate (source animal id): 254 | > 8
isolate (source animal id): 255 | > 8
isolate (source animal id): 256 | > 8
isolate (source animal id): 257 | > 8
isolate (source animal id): 258 | 1 (≈ 2.25 µM)
isolate (source animal id): 259 | > 8
isolate (source animal id): 260 | > 8
isolate (source animal id): 261 | 1 (≈ 2.25 µM)
isolate (source animal id): 262 | > 8
isolate (source animal id): 263 | > 8
isolate (source animal id): 264 | 2 (≈ 4.5 µM)
isolate (source animal id): 265 | > 8
isolate (source animal id): 266 | 1 (≈ 2.25 µM)
isolate (source animal id): 267 | > 8
isolate (source animal id): 268 | > 8
isolate (source animal id): 269 | > 8
isolate (source animal id): 270 | > 8
isolate (source animal id): 271 | > 8
isolate (source animal id): 272 | 1 (≈ 2.25 µM)
isolate (source animal id): 273 | > 8
isolate (source animal id): 274 | > 8
isolate (source animal id): 275 | > 8
isolate (source animal id): 276 | > 8
isolate (source animal id): 277 | 1 (≈ 2.25 µM)
isolate (source animal id): 278 | 1 (≈ 2.25 µM)
isolate (source animal id): 279 | > 8
isolate (source animal id): 280 | > 8
isolate (source animal id): 281 | > 8
isolate (source animal id): 282 | 1 (≈ 2.25 µM)
isolate (source animal id): 283 | 2 (≈ 4.5 µM)
isolate (source animal id): 284 | > 8
isolate (source animal id): 285 | 1 (≈ 2.25 µM)
isolate (source animal id): 286 | > 8
isolate (source animal id): 287 | > 8
isolate (source animal id): 288 | 1 (≈ 2.25 µM)
isolate (source animal id): 289 | 1 (≈ 2.25 µM)
isolate (source animal id): 290 | > 8
isolate (source animal id): 291 | > 8
isolate (source animal id): 292 | > 8
isolate (source animal id): 293 | > 8
isolate (source animal id): 294 | > 8
isolate (source animal id): 295 | > 8
isolate (source animal id): 296 | > 8
isolate (source animal id): 297 | 2 (≈ 4.5 µM)
isolate (source animal id): 298 | > 8
isolate (source animal id): 299 | > 8
isolate (source animal id): 300 | > 8
isolate (source animal id): 301 | > 8
isolate (source animal id): 302 | > 8
isolate (source animal id): 303 | 1 (≈ 2.25 µM)
isolate (source animal id): 304 | > 8
isolate (source animal id): 305 | 1 (≈ 2.25 µM)
isolate (source animal id): 306 | > 8
isolate (source animal id): 307 | > 8
isolate (source animal id): 308 | > 8
isolate (source animal id): 309 | > 8
isolate (source animal id): 310 | 2 (≈ 4.5 µM)
isolate (source animal id): 311 | > 8
isolate (source animal id): 312 | > 8
isolate (source animal id): 313 | > 8
isolate (source animal id): 314 | > 8
isolate (source animal id): 315 | 1 (≈ 2.25 µM)
isolate (source animal id): 316 | > 8
isolate (source animal id): 317 | > 8
isolate (source animal id): 318 | > 8
isolate (source animal id): 319 | > 8
isolate (source animal id): 320 | > 8
isolate (source animal id): 321 | > 8
isolate (source animal id): 322 | > 8
isolate (source animal id): 323 | 1 (≈ 2.25 µM)
isolate (source animal id): 324 | > 8
isolate (source animal id): 325 | 1 (≈ 2.25 µM)
isolate (source animal id): 326 | > 8
isolate (source animal id): 327 | > 8
isolate (source animal id): 328 | 1 (≈ 2.25 µM)
isolate (source animal id): 329 | > 8
isolate (source animal id): 330 | > 8
isolate (source animal id): 331 | > 8
isolate (source animal id): 332 | 1 (≈ 2.25 µM)
isolate (source animal id): 333 | > 8
isolate (source animal id): 334 | > 8
isolate (source animal id): 335 | > 8
isolate (source animal id): 336 | > 8
isolate (source animal id): 337 | > 8
isolate (source animal id): 338 | > 8
isolate (source animal id): 339 | > 8
isolate (source animal id): 340 | > 8
isolate (source animal id): 341 | 1 (≈ 2.25 µM)
